Results are given in words; binding and its absence hold for the method and conditions named. For some assays here: Binding seen in cells or lysates may run through a third protein. Some binding calls cover weakened binding; strength is not graded here.

Chains of the proteins cited; added tags and fusions are not shown. Residues count along the entry.
UniProt Q15788: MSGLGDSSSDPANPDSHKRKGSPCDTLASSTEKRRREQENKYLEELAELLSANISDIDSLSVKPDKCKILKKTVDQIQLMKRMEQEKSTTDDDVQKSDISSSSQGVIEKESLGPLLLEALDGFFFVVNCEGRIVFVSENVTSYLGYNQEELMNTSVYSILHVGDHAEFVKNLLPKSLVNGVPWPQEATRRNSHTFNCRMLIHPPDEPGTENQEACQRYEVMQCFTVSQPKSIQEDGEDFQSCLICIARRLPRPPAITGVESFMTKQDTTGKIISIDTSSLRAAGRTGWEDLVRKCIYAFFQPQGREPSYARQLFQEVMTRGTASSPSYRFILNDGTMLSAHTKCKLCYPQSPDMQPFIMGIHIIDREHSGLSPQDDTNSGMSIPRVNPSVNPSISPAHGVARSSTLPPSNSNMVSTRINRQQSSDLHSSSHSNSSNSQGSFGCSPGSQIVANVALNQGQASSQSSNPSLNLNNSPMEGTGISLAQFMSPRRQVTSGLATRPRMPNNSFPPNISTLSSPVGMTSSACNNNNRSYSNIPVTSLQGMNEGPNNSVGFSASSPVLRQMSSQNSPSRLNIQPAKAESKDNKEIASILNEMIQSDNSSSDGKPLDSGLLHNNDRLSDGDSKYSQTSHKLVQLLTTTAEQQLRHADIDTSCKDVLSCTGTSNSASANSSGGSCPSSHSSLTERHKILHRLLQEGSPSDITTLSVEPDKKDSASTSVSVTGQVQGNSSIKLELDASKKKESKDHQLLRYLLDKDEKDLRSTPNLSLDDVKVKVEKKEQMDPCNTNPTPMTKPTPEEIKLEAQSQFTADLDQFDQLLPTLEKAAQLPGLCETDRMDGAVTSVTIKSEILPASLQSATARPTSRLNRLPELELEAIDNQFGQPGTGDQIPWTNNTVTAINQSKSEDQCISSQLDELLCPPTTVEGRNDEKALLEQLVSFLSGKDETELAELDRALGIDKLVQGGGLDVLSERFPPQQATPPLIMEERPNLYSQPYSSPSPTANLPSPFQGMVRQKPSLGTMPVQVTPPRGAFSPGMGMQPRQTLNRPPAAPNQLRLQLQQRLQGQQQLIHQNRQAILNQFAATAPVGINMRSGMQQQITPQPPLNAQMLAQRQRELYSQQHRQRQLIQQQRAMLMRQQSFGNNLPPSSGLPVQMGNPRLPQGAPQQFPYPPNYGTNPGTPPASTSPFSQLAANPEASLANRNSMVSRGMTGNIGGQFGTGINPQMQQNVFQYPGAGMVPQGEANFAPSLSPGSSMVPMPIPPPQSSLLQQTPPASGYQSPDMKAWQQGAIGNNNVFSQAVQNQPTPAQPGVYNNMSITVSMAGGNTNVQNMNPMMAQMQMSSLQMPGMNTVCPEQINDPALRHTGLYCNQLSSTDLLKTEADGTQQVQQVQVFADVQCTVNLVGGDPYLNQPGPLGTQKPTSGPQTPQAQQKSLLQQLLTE
UniProt P20226, residues 159-339: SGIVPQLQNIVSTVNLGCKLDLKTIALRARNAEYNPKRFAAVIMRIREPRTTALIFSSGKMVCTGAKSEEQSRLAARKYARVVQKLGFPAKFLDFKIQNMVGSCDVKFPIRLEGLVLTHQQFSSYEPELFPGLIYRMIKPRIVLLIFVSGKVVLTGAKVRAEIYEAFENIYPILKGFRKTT
UniProt P04150, residues 77-262: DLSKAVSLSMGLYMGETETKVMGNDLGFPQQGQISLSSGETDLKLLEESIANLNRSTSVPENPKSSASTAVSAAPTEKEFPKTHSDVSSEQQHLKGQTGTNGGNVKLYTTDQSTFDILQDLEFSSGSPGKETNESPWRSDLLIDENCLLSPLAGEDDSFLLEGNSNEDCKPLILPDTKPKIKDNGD

Experiment [1] concerns the target steroid receptor coactivator-1 (SRC-1) (human (endogenous in HeLa)) (UniProt Q15788). Kind of experiment: co-IP; SRC-1 antibody on protein A/G-agarose beads; HeLa nuclear extract (0.5 mg total protein) mixed with 10 µg purified AF1 and/or TBPC, 4°C; blot with GR AF1 antibody; only the binder purified.
In experiment [2] the target is TBPC, 181 C-terminal residues of human TATA box binding protein (TBP) (human) (UniProt P20226). Kind of experiment: SPR; single cycle kinetic assay, AF1 as analyte; data not shown; both purified.

Take “glucocorticoid receptor (GR) N-terminal activation function domain AF1 (from UniProt P04150 77-262) (domain or fragment)”: the values for the binding result in experiment [1] and in experiment [2] were “binds weakly” and “binds”, respectively.

The values above are taken from publication PMC3131385, “TBP Binding-Induced Folding of the Glucocorticoid Receptor AF1 Domain Facilitates Its Interaction with Steroid Receptor Coactivator-1” (PLoS ONE, 2011).
